Results: the supplement of paper PMC12764529
± gives the half width of the 95% confidence interval. For many entries, trypsin and chymotrypsin gave values far apart.

Assays:
[1] = folding stability dG unfold (combined trypsin and chymotrypsin); higher = more stable
Method: (§1)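 Folding stability of de novo designed mini-proteins (<80 aa, no Cys; designed by TrROS, TrMRF, ProteinMPNN and the joint model) was measured by cDNA display proteolysis with trypsin and chymotrypsin. Each protease was used at 11 concentrations in a threefold dilution series plus a no-protease condition. K50 was inferred by Bayesian fitting of sequencing counts, and dG unfold was derived against a sequence-predicted unfolded-state K50 (Tsuboyama et al. method). Sequences shown include variable-length N-terminal GS-type padding (SAGGSAGG...) inside a display construct carrying a PA tag. Rows were kept only if the AF2 dimer inter-PAE was >15, to exclude likely homo-oligomers.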

[2] = folding stability dG unfold from trypsin proteolysis; higher = more stable
Method: as §1

[3] = folding stability dG unfold from chymotrypsin proteolysis; higher = more stable
Method: as §1

| Sequence | folding stability dG unfold [1] | folding stability dG unfold [2] | folding stability dG unfold [3] |
| --- | --- | --- | --- |
| SMSPSETETTTYTRTIPFPKSNPEQAKAEAEKEVRAELEAKGLKIDIPITIEWENDTVTVTIPISVTPPLSA [r9_889_JUSTAS] | -0.144 ± 0.29 kcal/mol | 0.594 ± 0.13 kcal/mol | – |
| SAGGSAGGSVDPVTTPLPPDAAYTVNLTTPENTTTNIPLADLPADTVVTVTRYPDSESISVTAVSAGGSAGG [r6_77_JUSTAS] | 0.758 ± 0.11 kcal/mol | 1.64 ± 0.097 kcal/mol | – |
| SAGGSAGGSPPFTITFIDENGKGVKKINLPFDPKKPSVLPLSEEEIKALKEELGPEAKSITLSSAGGSAGGS [r12_514_JUSTAS] | < -1 kcal/mol | -0.658 ± 0.16 kcal/mol | – |
| SMPISAEELAELFPGVVEIKPEPDSTVITAKDPNGTNPVFTLSPAGTVTVTTYTPGSGTTTTTTIPTALLSA [r9_427_JUSTAS] | 0.159 ± 0.071 kcal/mol | 0.681 ± 0.025 kcal/mol | – |
| SEVEITVEFDEENGVLTITVKNKETNETYKVRIVKVDEEKGLIYVEIENKKTGKKIRIEMTLEELKKLLKSA [r9_1221_TrROS_Hall] | > 6 kcal/mol | 3.11 ± 0.18 kcal/mol | – |
| SAGGSAGGSAHIEYDGNMWVITYPGGKEHTVNPGNPEEALEELLKMPPENVPPIEIEPIPPSSAGGSAGGSA [r18_68_TrROS] | 0.75 ± 0.071 kcal/mol | 1.33 ± 0.068 kcal/mol | – |
| SAGGSAGGSAGGMVETKVTLLPNGKVKVTTTTLDENGNIISTTTTVSEVSLPFNPNVSLLSAGGSAGGSAGG [r7_137_JUSTAS] | 0.273 ± 0.063 kcal/mol | 1.13 ± 0.032 kcal/mol | – |
| MMEIKVKLVIERPDGKWLELTLTLKAPSLEELEEELRKLLEELGFKVESLEVRVERNEDGTVTVTVRIRIDS [r1_281_TrROS_Hall] | > 6 kcal/mol | 3.71 ± 0.17 kcal/mol | – |
| SAGGSAGGSASSPVVTPVGDVITVTAPPNTTVTIKYPDGTVETRVVAADETVSVPLNASVVASAGGSAGGSA [r18_452_JUSTAS] | 0.486 ± 0.045 kcal/mol | 1.32 ± 0.028 kcal/mol | – |
| SAGMIEIEEKDGKLVIRITLKVPEEEEITEDELKKLLEELGLEIEEIKITVEKNENGETTVTVEIVIKPSAG [r5_922_TrROS_Hall] | > 6 kcal/mol | 2.81 ± 0.31 kcal/mol | – |
| SAGGSAGGSAAVLPPDSTLTETEVTPLPNGDLLVTTTTTLVTPEPTLETTTTTTLVAVAGTGSAGGSAGGSA [r18_273_JUSTAS] | 1.04 ± 0.057 kcal/mol | 1.94 ± 0.064 kcal/mol | – |
| SAGGSAGGSAGMILTEEVTVAVPTLSTADGTRHTTTVPELVVVELKLPPVPPEAVEKLLASAGGSAGGSAGG [r11_318_JUSTAS] | -0.887 ± 0.16 kcal/mol | -0.0441 ± 0.019 kcal/mol | – |
| SAGGSAGGSAMPEPVTITVRVPYEPDEAEAAAERIREEEYPDAKSITVTRDPATGTATFTVNSAGGSAGGSA [r18_390_JUSTAS] | < -1 kcal/mol | -0.222 ± 0.18 kcal/mol | – |
| SAGGSAGGSAGMEIPEDWTVVEESEVPDERLVTVHNPKTGELYVVTQPPATGEETVERYLSAGGSAGGSAGG [r11_896_JUSTAS] | < -1 kcal/mol | 0.0248 ± 0.2 kcal/mol | – |
| SEEELKKLLEKLLKELQEELNIEGKEITVEELKEALKKRLEELGFEVVEVKIEVKPDKTVKVEVKLKKKKSA [r9_52_TrROS_Hall] | 3.62 ± 0.44 kcal/mol | 1.5 ± 0.09 kcal/mol | – |
| SAGGSAGGSAAKVEIEPRRLPDGRLLVVVRVYDPSTGRVVDRPFLVDPDVITPEDLLALAASAGGSAGGSAG [r3_127_TrMRF] | 1.94 ± 0.1 kcal/mol | – | 2.46 ± 0.041 kcal/mol |
| SAGGDVVEFDSLEDLEAALPVLRRGAELLLRLNLVFERPLPDGRPRRVPRLLFLRARLEDGELRIEPVSAGG [r13_835_TrMRF] | 1.78 ± 0.13 kcal/mol | – | 2.74 ± 0.094 kcal/mol |
| SAGGSAGGSAGGSMTTITFPATVEESPTDTVTVTPPDGSTITVPKSRVSFDPSGTVTITGSAGGSAGGSAGG [r7_684_JUSTAS] | 1.01 ± 0.072 kcal/mol | – | 1.63 ± 0.039 kcal/mol |
| SAGGSAMTLPPGVTVSFSRSPEGTLTVTVTLPDGTPVTLPLATDPAGPLDLTPEELAAAIAAAIAASAGGSA [r15_780_JUSTAS] | 3.37 ± 0.053 kcal/mol | – | 3.741 ± 0.0095 kcal/mol |
| SAMLTILSVETHTLPNGEEIVTVTLKTPDLETLDALLAELGLTGTRDPDDPQVVTITTSREKVQEIKEKSAG [r14_777_JUSTAS] | 4.57 ± 0.3 kcal/mol | – | 4.71 ± 0.2 kcal/mol |
| SKLKLTLYNKDTGEKVEIEFDPETGKITIKVYDKNGKLVAEAEIEIKDGKITLTIKVNGKTYKIEITLPESA [r9_385_TrROS_Hall] | > 6 kcal/mol | 3.93 ± 0.81 kcal/mol | – |
| SAGGSAGGSAGMKIFVMEMEIKIKKKKKKDGKLETEIEIKIKPIKEIEIPENDPELKKLLSAGGSAGGSAGG [r11_236_TrROS_Hall] | 1.73 ± 0.39 kcal/mol | 2.38 ± 0.18 kcal/mol | – |
| SAGPTVRQETFGEKYRIEVEVSPDGTVKVKIVNENGEVTELEGKVEPGKPVVLPFPLDGHVVNVVVLPASAG [r5_237_TrMRF] | 2.52 ± 0.13 kcal/mol | – | 2.91 ± 0.06 kcal/mol |
| SAGGSAGGMFYVVRLEGPDGPLRTLVRPAESLEEARAFAEALAPEGARVTVEPLEEEEAERLLGSAGGSAGG [r6_267_TrMRF] | 2.13 ± 0.065 kcal/mol | – | 2.54 ± 0.053 kcal/mol |

An excerpt of these results, tab-delimited:
Sequence	folding stability dG unfold [1]	folding stability dG unfold [2]	folding stability dG unfold [3]
SAGGSAGGSASSPVVTPVGDVITVTAPPNTTVTIKYPDGTVETRVVAADETVSVPLNASVVASAGGSAGGSA [r18_452_JUSTAS]	0.486 ± 0.045 kcal/mol	1.32 ± 0.028 kcal/mol	–
SAGMIEIEEKDGKLVIRITLKVPEEEEITEDELKKLLEELGLEIEEIKITVEKNENGETTVTVEIVIKPSAG [r5_922_TrROS_Hall]	> 6 kcal/mol	2.81 ± 0.31 kcal/mol	–
SAGGSAGGSAAVLPPDSTLTETEVTPLPNGDLLVTTTTTLVTPEPTLETTTTTTLVAVAGTGSAGGSAGGSA [r18_273_JUSTAS]	1.04 ± 0.057 kcal/mol	1.94 ± 0.064 kcal/mol	–
SAGGSAGGSAGMILTEEVTVAVPTLSTADGTRHTTTVPELVVVELKLPPVPPEAVEKLLASAGGSAGGSAGG [r11_318_JUSTAS]	-0.887 ± 0.16 kcal/mol	-0.0441 ± 0.019 kcal/mol	–
SAGGSAGGSAMPEPVTITVRVPYEPDEAEAAAERIREEEYPDAKSITVTRDPATGTATFTVNSAGGSAGGSA [r18_390_JUSTAS]	< -1 kcal/mol	-0.222 ± 0.18 kcal/mol	–
SAGGSAGGSAGMEIPEDWTVVEESEVPDERLVTVHNPKTGELYVVTQPPATGEETVERYLSAGGSAGGSAGG [r11_896_JUSTAS]	< -1 kcal/mol	0.0248 ± 0.2 kcal/mol	–
SEEELKKLLEKLLKELQEELNIEGKEITVEELKEALKKRLEELGFEVVEVKIEVKPDKTVKVEVKLKKKKSA [r9_52_TrROS_Hall]	3.62 ± 0.44 kcal/mol	1.5 ± 0.09 kcal/mol	–
SAGGSAGGSAAKVEIEPRRLPDGRLLVVVRVYDPSTGRVVDRPFLVDPDVITPEDLLALAASAGGSAGGSAG [r3_127_TrMRF]	1.94 ± 0.1 kcal/mol	–	2.46 ± 0.041 kcal/mol
SAGGDVVEFDSLEDLEAALPVLRRGAELLLRLNLVFERPLPDGRPRRVPRLLFLRARLEDGELRIEPVSAGG [r13_835_TrMRF]	1.78 ± 0.13 kcal/mol	–	2.74 ± 0.094 kcal/mol
SAGGSAGGSAGGSMTTITFPATVEESPTDTVTVTPPDGSTITVPKSRVSFDPSGTVTITGSAGGSAGGSAGG [r7_684_JUSTAS]	1.01 ± 0.072 kcal/mol	–	1.63 ± 0.039 kcal/mol

More results follow.

| Sequence | folding stability dG unfold [1] | folding stability dG unfold [2] | folding stability dG unfold [3] |
| --- | --- | --- | --- |
| SAGGSAGGSAMTVTVTVTRELPGGKWLGTVTLPGANTPVLVEVPGPLEEAEARLRELAEAASAGGSAGGSAG [r3_104_JUSTAS] | 0.819 ± 0.057 kcal/mol | – | 1.37 ± 0.023 kcal/mol |
| SMASLSPEEILKRIINKVNELEAEGYPPEKTPIEVTVPWPDPAAAEATREAILKEYPKVKNITIRHVPPGSA [r9_341_JUSTAS] | < -1 kcal/mol | 1.17 ± 0.23 kcal/mol | – |
| SMRPDETALVRFEFELPFPPERPEEAVEAVRRLVDALLAARGYEADVPVAVEPFGDRLRVLVPVALRPRASA [r9_889_TrMRF] | 1.64 ± 0.12 kcal/mol | – | 2.12 ± 0.054 kcal/mol |
| SAGGSAGGSAMITSDDLEKLLKKLGIDPKKLGPEKLAKIFKELYPDAIITADPEGKAYIYPSAGGSAGGSAG [r3_375_TrMRF] | 1.2 ± 0.14 kcal/mol | – | 0.467 ± 0.19 kcal/mol |
| SGLPEALAKAREFAEAVRRAHADHEVRIEAEAELTPDGRLRIRARVEVRPLPPAPPRPARGPDGPLVTLGSA [r9_82_TrMRF] | 1.51 ± 0.069 kcal/mol | – | 1.95 ± 0.079 kcal/mol |
| SAGSPDLVTVTTEVRLPDEAEVAALVAANPDTEVRPLPDGTTLVTLTTTVRVPPPPYTPDPNSESLAPASAG [r5_129_JUSTAS] | 0.852 ± 0.075 kcal/mol | 1.49 ± 0.049 kcal/mol | – |
| SAGGSAGGSAGKKKYVIKVYFEDTGKEVEIEAESKEEALEAAKRLAEELGLKIKKVEIYPSAGGSAGGSAGG [r11_951_TrROS_Hall] | 4.18 ± 0.38 kcal/mol | – | 3.94 ± 0.26 kcal/mol |
| SAGAHTVSVHYVEPGSKKLSSVETSEITLEPGEELPLDEVAARFPSENYEVTAQEEPDAITITIYVYRGSAG [r5_269_JUSTAS] | 0.547 ± 0.087 kcal/mol | – | 0.522 ± 0.27 kcal/mol |
| SAGSPVRVELLEEPGKLVLTRVEVAPDGSVLRVEVEVRPEPPLPAAPPLYPELLVPDARGRLVSPLALLSAG [r5_685_JUSTAS] | 0.671 ± 0.37 kcal/mol | – | 1.36 ± 0.18 kcal/mol |
| SAGGSAGGSAGGPIKVKADKVTVEKRRNPENGKEYVELTVPGPGGTRTGRFPAEDLDKISAGGSAGGSAGGS [r10_447_TrROS] | < -1 kcal/mol | -0.654 ± 0.21 kcal/mol | – |
| SAGGAPPVLPAGQLELLDFRVEPRPDGGYRAVLLARVRLPGTGRTVLLLLVSEFPPDGPPRTALGVFPSAGG [r13_263_TrMRF] | 3.99 ± 0.088 kcal/mol | – | 4.38 ± 0.059 kcal/mol |
| SAGGSTVTVTVRRRVRVEVNGELREFEVEVTVTVRLPPPPPVIELPPEQVTRIEWDEETQELRVEVDSAGGS [r8_28_TrROS_Hall] | 3.28 ± 0.21 kcal/mol | – | 3.33 ± 0.063 kcal/mol |
| SAGGSAGGSAMTVNLNTPGEEAPSLIAEARAAGTPATVVVTPKEGNKLHPVTGEFPAPPLLSAGGSAGGSAG [r3_149_JUSTAS] | 0.653 ± 0.1 kcal/mol | – | 1.25 ± 0.054 kcal/mol |
| SAGMPPAVTITVSRSTAPDGTYTLTATITLPDGTTLATRTVPLSTPNDAAAVAAAVAAFEAAAAALLASAGG [r19_13_JUSTAS] | 3.32 ± 0.042 kcal/mol | – | 3.727 ± 0.012 kcal/mol |
| MTLTITLPDGTKIEITIEKNEDGTYTITVKITLPNGEEVTITVTVSREELENMTLEELLAKALKEALEKLKS [r1_92_TrROS_Hall] | > 6 kcal/mol | 2.83 ± 0.17 kcal/mol | – |
| SAGGSAMVTVERRTLSPEGDLAVVEAEAAARGLTYVALGGDGTVVVIRTDDPAEFARRAAEIRAAASAGGSA [r15_546_JUSTAS] | 0.325 ± 0.18 kcal/mol | – | 1.05 ± 0.14 kcal/mol |
| SAGGSAGGSAGPVVLPVPFLGVDPDGRPLPRLAVFVFVPEPLREAAREAAKEADLEVVLDSAGGSAGGSAGG [r17_114_TrMRF] | < -1 kcal/mol | – | 1.03 ± 0.27 kcal/mol |
| SAAAPEAAAAAVTAAIAALAAARGLDVDVVVTASAEADGSVTITVDLSSPEVRAAFLAALPPDVDLALASAG [r14_491_JUSTAS] | 1.28 ± 0.084 kcal/mol | – | 1.79 ± 0.054 kcal/mol |
| SAGGVGFGIEPLPDGTYRLTVVVTSAGEGELTTSSLELTVPVAPLAPPAPPVPVRPGWRDGVPLPGTAASAG [r5_169_TrMRF] | 1.24 ± 0.14 kcal/mol | – | 2.08 ± 0.041 kcal/mol |
| SAGGSAGGSAVRTIFIPGGNIKDIIELIKSDPGQPVQIHAPDGWVIKITGDKDIDIHPFPDSAGGSAGGSAG [r3_269_TrROS] | 0.216 ± 0.15 kcal/mol | – | 0.337 ± 0.084 kcal/mol |
| SAGGASPDEVWTATLLSFDPGSGGSTYQLQFTDPLAGTPTTLTASGDDPAAVQAALDALAAAGPVLLESAGG [r13_286_JUSTAS] | 0.345 ± 0.11 kcal/mol | – | 1.1 ± 0.12 kcal/mol |
| SAGGSAGGSAGGMDTPLEEAAARHPPDGTLNYQDPESGRTVSITRPPETGELAPTVTASSAGGSAGGSAGGS [r10_777_JUSTAS] | 0.384 ± 0.064 kcal/mol | – | 1.07 ± 0.015 kcal/mol |
| SAGGSAGGSAMRPPAAVEVTETLEPPGHPLRPVRVKLPGTGEEVVLVTTGESVEAALARAAASAGGSAGGSA [r18_345_JUSTAS] | 1.12 ± 0.25 kcal/mol | – | 1.58 ± 0.046 kcal/mol |
